Results deposited as PubChem BioAssay AID504774 (Drosophila RNAi Screening Center, 2011)
The deposit covers about 23,000 reagents; shown is an unselected part of those that have a named target and a result. 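Values are quantile-normalised luminescence on an arbitrary scale; higher means more cells surviving MMS.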 Further read-outs or replicates are left out here.

- Purpose: 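Fly genes whose loss alters survival after alkylation damage to DNA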 (primary screen)
- Cell system: Drosophila Kc167 cells
- Reagent: long dsRNA against Drosophila genes, about 0.25 µg dsRNA per well
- Duration: about 6 days: 3 days knock-down, then 3 days with or without MMS
- Treatment: methyl methanesulphonate 0.004% (w/v) for 3 days after knock-down
- Detection: 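Viability in wells given MMS, read as ATP luminescence, normalised by quantiles plate by plate and averaged across replicates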
- Direction: mean viability with MMS: higher = more surviving cells after MMS

For CG13359 (GeneID 31028) [DRSC18539], the entry reads mean viability with MMS 3.77e6.
With knock-down of CG7772 (GeneID 32776) [DRSC20056], the record shows mean viability with MMS 3.74e6.
Against CG11927 (GeneID 33687) [DRSC00337] the deposit lists mean viability with MMS 3.42e6.
MICU1 (GeneID 33999) [DRSC02752] gave mean viability with MMS 3.52e6.
Against shrb (GeneID 35933) [DRSC07061], the entry reads mean viability with MMS 3.34e6.
enok (GeneID 37859) [DRSC04096] gave mean viability with MMS 3.15e6.
Atg13 (GeneID 40998) [DRSC16228] gave mean viability with MMS 3.63e6.
Silencing of CG9592 (GeneID 39585) [DRSC11078] came out at: mean viability with MMS 3.49e6.
Depletion of CG15439 (GeneID 33651) [DRSC00453] came out at: mean viability with MMS 1.66e6.
Depletion of LManIII (GeneID 34203) [DRSC03221] resulted in: mean viability with MMS 3.39e6.
For dila (GeneID 36010) [DRSC06607] the deposit lists mean viability with MMS 3.41e6.
RpS3 (GeneID 42761) [DRSC16838] scored mean viability with MMS 2.88e6.
CG12684 (GeneID 31390) [DRSC17875] showed mean viability with MMS 3.60e6.
With knock-down of Rad9 (GeneID 40054) [DRSC11263], the record shows mean viability with MMS 3.60e6.
With knock-down of CG8565 (GeneID 32538) [DRSC20112], the record shows mean viability with MMS 3.59e6.
For Tbp (GeneID 37476) [DRSC04662] the deposit lists mean viability with MMS 3.43e6.
Knock-down of Tbp (GeneID 37476) [DRSC23111] gave: mean viability with MMS 2.87e6.
CG17211 (GeneID 34639) [DRSC02587] scored mean viability with MMS 3.71e6.
After knock-down of CG14015 (GeneID 33780) [DRSC02346], the screen gave mean viability with MMS 3.39e6.
CG42254 (retired record) (GeneID 36644) [DRSC06194] showed mean viability with MMS 3.45e6.
Silencing of Gp150 (GeneID 37549) [DRSC04618] gave: mean viability with MMS 3.37e6.
Edg78E (GeneID 40354) [DRSC11863] gave mean viability with MMS 3.49e6.
After knock-down of CG9471 (GeneID 41197) [DRSC16499], the record shows mean viability with MMS 3.55e6.
Depletion of Usp30 (GeneID 31519) [DRSC18265] gave: mean viability with MMS 3.70e6.
